Measured values published in paper PMC4585930.
These are yes or no findings as the source states them, for the method shown. In cells and extracts the contact can be indirect. Some entries that bind do so weakly or less than the wild type. Sequences can lack the tags named with a protein.

The chains behind the UniProt entries cited, without tags or fusion partners.
UniProt P34147: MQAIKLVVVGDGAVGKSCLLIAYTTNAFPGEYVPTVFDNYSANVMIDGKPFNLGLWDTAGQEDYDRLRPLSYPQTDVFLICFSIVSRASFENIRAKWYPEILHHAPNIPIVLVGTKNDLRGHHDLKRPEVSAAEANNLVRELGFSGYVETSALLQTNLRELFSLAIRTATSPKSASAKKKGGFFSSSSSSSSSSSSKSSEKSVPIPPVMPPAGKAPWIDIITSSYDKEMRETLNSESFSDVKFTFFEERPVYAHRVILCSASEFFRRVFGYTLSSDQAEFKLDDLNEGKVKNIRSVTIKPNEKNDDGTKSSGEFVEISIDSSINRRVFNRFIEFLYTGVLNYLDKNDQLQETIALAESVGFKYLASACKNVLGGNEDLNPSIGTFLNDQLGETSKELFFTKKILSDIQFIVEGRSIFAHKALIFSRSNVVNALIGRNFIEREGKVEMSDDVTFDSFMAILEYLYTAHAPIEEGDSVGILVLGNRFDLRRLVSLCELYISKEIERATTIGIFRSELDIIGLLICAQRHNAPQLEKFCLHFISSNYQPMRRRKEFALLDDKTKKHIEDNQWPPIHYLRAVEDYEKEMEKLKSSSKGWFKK

T1: GFP-CRN7 WT (D. discoideum) (UniProt Q55E54)
T1 sequence: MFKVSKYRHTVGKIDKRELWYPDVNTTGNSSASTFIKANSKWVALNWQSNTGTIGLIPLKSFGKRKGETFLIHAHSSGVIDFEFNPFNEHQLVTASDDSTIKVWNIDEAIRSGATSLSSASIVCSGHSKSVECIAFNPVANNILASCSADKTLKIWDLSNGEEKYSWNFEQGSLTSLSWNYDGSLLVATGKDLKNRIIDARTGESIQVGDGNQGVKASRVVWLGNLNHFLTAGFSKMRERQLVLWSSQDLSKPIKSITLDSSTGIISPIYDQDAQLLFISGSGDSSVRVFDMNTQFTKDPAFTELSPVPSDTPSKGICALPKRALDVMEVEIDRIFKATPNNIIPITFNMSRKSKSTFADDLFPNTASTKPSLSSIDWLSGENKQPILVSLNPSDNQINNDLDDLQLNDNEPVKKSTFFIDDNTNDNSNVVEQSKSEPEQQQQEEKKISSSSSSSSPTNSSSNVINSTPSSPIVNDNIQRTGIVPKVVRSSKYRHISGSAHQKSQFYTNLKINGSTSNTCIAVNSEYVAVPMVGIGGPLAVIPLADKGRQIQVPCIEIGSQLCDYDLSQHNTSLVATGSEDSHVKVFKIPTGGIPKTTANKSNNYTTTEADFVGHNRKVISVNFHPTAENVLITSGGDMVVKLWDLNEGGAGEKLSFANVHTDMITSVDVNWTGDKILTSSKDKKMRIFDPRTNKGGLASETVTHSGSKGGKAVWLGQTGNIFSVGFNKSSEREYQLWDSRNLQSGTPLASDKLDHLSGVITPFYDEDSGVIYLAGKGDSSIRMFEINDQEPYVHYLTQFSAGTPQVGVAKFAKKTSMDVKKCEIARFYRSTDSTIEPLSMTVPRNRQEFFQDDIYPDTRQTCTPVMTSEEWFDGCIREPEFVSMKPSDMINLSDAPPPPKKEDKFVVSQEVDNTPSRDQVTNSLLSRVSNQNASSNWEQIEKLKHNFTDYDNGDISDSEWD

T2: GST-RacE (D. discoideum) (UniProt Q23862)
T2 sequence: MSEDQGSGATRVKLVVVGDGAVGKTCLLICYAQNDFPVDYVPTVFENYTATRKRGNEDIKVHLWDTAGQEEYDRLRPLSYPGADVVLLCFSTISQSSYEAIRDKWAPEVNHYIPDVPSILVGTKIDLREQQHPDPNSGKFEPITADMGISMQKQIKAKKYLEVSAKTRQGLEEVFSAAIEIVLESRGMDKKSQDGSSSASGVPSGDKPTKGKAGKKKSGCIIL


What was measured:
[1] = target: T1, GFP-CRN7 WT (D. discoideum); assay: co-IP; GFP-CRN7 precipitated with GFP-trap beads from cell lysate, 2 hours at 4 °C; SCAR detected with polyclonal antibodies
[2] = target: GST-Rac1a (D. discoideum) (UniProt P34144); assay: pull-down; GST-Rac proteins (or GST) preloaded with GDP or GTPγS on Glutathione Sepharose 4B beads, incubated with lysates of D. discoideum cells expressing GFP-tagged CRN7 proteins; lysis buffer 25 mM Tris-HCl pH 7.5, 100 mM NaCl, 5 mM MgCl2, 2 mM EGTA, 2 mM DTT, 1% Nonidet P-40; western blot with GFP mAb K3-184-2; only the target purified
[3] = target: T2, GST-RacE (D. discoideum); assay: as above
[4] = target: GST-RacA (D. discoideum) (UniProt P34147); assay: as above
[5] = target: GST-Rac1b (D. discoideum) (UniProt P34145); assay: as above

Row | binding [1] | binding [2] | binding [3] | binding [4] | binding [5] | Binder
1 | binds weakly |  |  |  |  | SCAR (protein, UniProt Q54NF8 1-443) MVLITRYLPSVTDNNQPALEGQSKDQIVDTVITSTTVGIINQLTMLVAHSNSIFTALANDANLVTQRIEKLGSRIRPLIQSIPSIEDYHRNTSIDTMNSKPRAEFHADNSERNQHFTHASIPASINTVYEKCKPPPNLQLLDPYMDDGQKSLKLYTNPDFFMDEWVAEQQKLHEEARQRKRERREARLKKKGEKNEVEVKKVKSVTKVRYDPVTGEKITINIESPHTSSPQIQHQSNNTATPQHTTQHFGTNQYQAPPPPPLSQSSPSQQHSPINSYTPPPPPLNTSTPSPSSSFQGRPPSTGFNTPPPPMSNNNNMPPPPPMQQNGGAANNRLSVHNSAPIVAAPAPPPPPPPPSAPAPPPPPMAKAGGGASDIKPKASGARSDLLSSIMQGMALKPAEERKVAEAPKKEEALNVADILARRIAWAGDSDSSEDESDDSDWD
2 |  | binds weakly | binds | binds | binds weakly | GFP-CRN7 WT (protein, UniProt Q55E54 1-962) MFKVSKYRHTVGKIDKRELWYPDVNTTGNSSASTFIKANSKWVALNWQSNTGTIGLIPLKSFGKRKGETFLIHAHSSGVIDFEFNPFNEHQLVTASDDSTIKVWNIDEAIRSGATSLSSASIVCSGHSKSVECIAFNPVANNILASCSADKTLKIWDLSNGEEKYSWNFEQGSLTSLSWNYDGSLLVATGKDLKNRIIDARTGESIQVGDGNQGVKASRVVWLGNLNHFLTAGFSKMRERQLVLWSSQDLSKPIKSITLDSSTGIISPIYDQDAQLLFISGSGDSSVRVFDMNTQFTKDPAFTELSPVPSDTPSKGICALPKRALDVMEVEIDRIFKATPNNIIPITFNMSRKSKSTFADDLFPNTASTKPSLSSIDWLSGENKQPILVSLNPSDNQINNDLDDLQLNDNEPVKKSTFFIDDNTNDNSNVVEQSKSEPEQQQQEEKKISSSSSSSSPTNSSSNVINSTPSSPIVNDNIQRTGIVPKVVRSSKYRHISGSAHQKSQFYTNLKINGSTSNTCIAVNSEYVAVPMVGIGGPLAVIPLADKGRQIQVPCIEIGSQLCDYDLSQHNTSLVATGSEDSHVKVFKIPTGGIPKTTANKSNNYTTTEADFVGHNRKVISVNFHPTAENVLITSGGDMVVKLWDLNEGGAGEKLSFANVHTDMITSVDVNWTGDKILTSSKDKKMRIFDPRTNKGGLASETVTHSGSKGGKAVWLGQTGNIFSVGFNKSSEREYQLWDSRNLQSGTPLASDKLDHLSGVITPFYDEDSGVIYLAGKGDSSIRMFEINDQEPYVHYLTQFSAGTPQVGVAKFAKKTSMDVKKCEIARFYRSTDSTIEPLSMTVPRNRQEFFQDDIYPDTRQTCTPVMTSEEWFDGCIREPEFVSMKPSDMINLSDAPPPPKKEDKFVVSQEVDNTPSRDQVTNSLLSRVSNQNASSNWEQIEKLKHNFTDYDNGDISDSEWD
